Assay results taken from the supplement of paper PMC3682954.
Where “and” joins values, the source holds several entries; their conditions need not be identical. Equal values may be shown once. Where a name gives a salt, the structure may show the parent alone. ± gives the standard deviation of the averaged measurements. This is one part of the list. Many values rest on one well or one pass, so single values are uncertain.

System: RAW 264.7
Experiment: HMGB1-induced TNF-alpha production relative to HMGB1-stimulated control; higher = more TNF-alpha secretion (less inhibition)
Conditions: stimulus: HMGB1 5 ug/ml, 18 h
[1] = compound concentration: 1 ug/ml

Row | Structure (SMILES) | HMGB1-induced TNF-alpha production (compound concentration: 3 uM) | HMGB1-induced TNF-alpha production [1]
1 | c1ccc(CN2CCC3(CCCc4ccccc43)CC2)cc1 [L-687,384 hydrochloride] | 92.1% | –
2 | O=C(CCCCC(=O)Nc1c(I)cc(I)c(C(=O)O)c1I)Nc1c(I)cc(I)c(C(=O)O)c1I [Iodipamide] | 109% | –
3 | O=C(CCCCC(=O)Nc1c(I)cc(I)c(C(=O)O)c1I)Nc1c(I)cc(I)c(C(=O)O)c1I | 86.4% | –
4 | C[C@@H]1O[C@@H](O[C@H]2[C@H](Oc3cc(O)c4c(c3)O[C@H](c3ccc(O)cc3)CC4=O)O[C@H](CO)[C@@H](O)[C@@H]2O)[C@H](O)[C@H](O)[C@H]1O [Naringin] | – | 82%
5 | N=C(N=C(N)N)N1CCOCC1 [Moroxidine hydrochloride] | 89% | –
6 | CC(=O)OCC(=O)[C@@]12OC3(CCCC3)O[C@@H]1C[C@H]1[C@@H]3CCC4=CC(=O)C=C[C@]4(C)[C@@]3(F)[C@@H](O)C[C@@]12C | 43.4% | –
7 | CC(=O)OCC(=O)[C@@]12OC3(CCCC3)O[C@@H]1C[C@H]1[C@@H]3CCC4=CC(=O)C=C[C@]4(C)[C@@]3(F)[C@@H](O)C[C@@]12C [Amcinonide] | 46.6% | –
8 | C[C@@H]1O[C@@H](OC[C@H]2O[C@@H](Oc3c(-c4ccc(O)c(O)c4)oc4cc(O)cc(O)c4c3=O)[C@H](O)[C@@H](O)[C@@H]2O)[C@H](O)[C@H](O)[C@H]1O [RUTOSIDE (rutin)] | 101% | –
9 | C[C@@H]1O[C@@H](OC[C@H]2O[C@@H](Oc3c(-c4ccc(O)c(O)c4)oc4cc(O)cc(O)c4c3=O)[C@H](O)[C@@H](O)[C@@H]2O)[C@H](O)[C@H](O)[C@H]1O | 102% | –
10 | C[C@@H]1O[C@@H](OC[C@H]2O[C@@H](Oc3c(-c4ccc(O)c(O)c4)oc4cc(O)cc(O)c4c3=O)[C@H](O)[C@@H](O)[C@@H]2O)[C@H](O)[C@H](O)[C@H]1O [Rutin] | – | 76.9%
11 | C[C@@H]1O[C@@H](OC[C@H]2O[C@@H](Oc3c(-c4ccc(O)c(O)c4)oc4cc(O)cc(O)c4c3=O)[C@H](O)[C@@H](O)[C@@H]2O)[C@H](O)[C@H](O)[C@H]1O [Rutine] | – | 60.9%
12 | CCCC(=O)Nc1ccc(OCC(O)CNC(C)C)c(C(C)=O)c1 (stereo not given) [Acebutolol hydrochloride] | 58.6% | –
13 | CCCC(=O)Nc1ccc(OCC(O)CNC(C)C)c(C(C)=O)c1 (stereo not given) | 95% | –
14 | CC(=O)Nc1ccc(OCC(O)CNC(C)C)cc1 (stereo not given) [Practolol] | 85 ± 16% | –
15 | CN1[C@@H]2CC[C@H]1C[C@@H](OC(c1ccccc1)c1ccccc1)C2 [Benztropine mesylate] | 93.8 ± 27% | –
16 | CN1[C@@H]2CC[C@H]1C[C@@H](OC(c1ccccc1)c1ccccc1)C2 | 99.6% | –
17 | O=C(Nc1ccccc1)OCC(CN1CCCCC1)OC(=O)Nc1ccccc1 (stereo not given) [Diperodon hydrochloride] | 67.2% | –
18 | O=C(Nc1ccccc1)OCC(CN1CCCCC1)OC(=O)Nc1ccccc1 (stereo not given) | 58.9% | –
19 | CC1(C)C(=O)N(CCN2CCC(C(=O)c3ccc(F)cc3)CC2)c2ccccc21 [LY-310,762 hydrochloride] | 118% | –
20 | CCN(CC)CC1CCCCN1CC(=O)N1c2ccccc2C(=O)Nc2cccnc21 (stereo not given) | 108% | –
21 | CC#CCC(C)[C@H](O)/C=C/[C@@H]1[C@H]2C/C(=C/CCCC(=O)O)C[C@H]2C[C@H]1O (stereo not given in full) [Iloprost] | 70.8% | –
22 | O[C@H]1CCN2Cc3ccccc3N=C12 [Peganine HCl] | – | 80.3%
23 | O=C(O)c1cn(C2CC2)c2cc(N3CCNCC3)c(F)cc2c1=O | 87.8 ± 1.6% | –
24 | O=C(O)c1cn(C2CC2)c2cc(N3CCNCC3)c(F)cc2c1=O [Ciprofloxacin] | 75.6% | –
25 | O=C(O)c1cn(C2CC2)c2cc(N3CCNCC3)c(F)cc2c1=O [Ciprofloxacin hydrochloride] | 78.2% | –
26 | CCCn1c(=O)[nH]c(=O)c2[nH]cnc21 [3-n-Propylxanthine] | 108% | –
27 | O=c1cc(-c2ccc(O)cc2O)oc2ccccc12 | – | 20.9%

Row | Structure (SMILES) | HMGB1-induced TNF-alpha production (compound concentration: 3 uM) | HMGB1-induced TNF-alpha production [1]
28 | OC[C@H]1O[C@@H](n2cnc3c(NC4CCCC4)ncnc32)[C@H](O)[C@@H]1O [N6-Cyclopentyladenosine] | 90% | –
29 | C[N+](C)(C)CC=O [Betaine aldehyde chloride] | 59.6% | –
30 | Cn1c(=O)[nH]c2ncn(C)c2c1=O [1,7-Dimethylxanthine] | 80.2% | –
31 | C1COC(NC(C2CC2)C2CC2)=N1 [Rilmenidine hemifumarate] | 115% | –
32 | C1COC(NC(C2CC2)C2CC2)=N1 [Rilmenidine] | 91.1% | –
33 | Cc1cc(C(C)(C)C)c(O)c(C(C)(C)C)c1 | 66.6% | –
34 | COc1ccc(-c2cc(=S)ss2)cc1 [Anethole-trithione] | 89.3 ± 7.8% | –
35 | COc1cc(C(=O)NCc2ccc(OCCN(C)C)cc2)cc(OC)c1OC | 93.4% | –
36 | COc1cc(C(=O)NCc2ccc(OCCN(C)C)cc2)cc(OC)c1OC [Trimethobenzamide hydrochloride] | 60.2% | –
37 | CCCN1CCCC[C@H]1C(=O)Nc1c(C)cccc1C | 101% | –
38 | Cc1ccc(S(=O)(=O)N[C@@H](Cc2ccccc2)C(=O)CCl)cc1 [N-p-Tosyl-L-phenylalanine chloromethyl ketone] | 70.9% | –
39 | NC1CCN(c2cccc(Cl)n2)CC1 | 94.9% and 119% | –
40 | C[C@@H]1CC[C@H]2[C@](C)(CO)[C@@H](O)CC[C@]2(C)[C@@]12CC[C@@](CO)(CCO)O2 [Lagochiline] | – | 88.8%
41 | C1CCC(C(CC2CCCCN2)C2CCCCC2)CC1 (stereo not given) | 89.2% | –
42 | C1CCC(C(CC2CCCCN2)C2CCCCC2)CC1 (stereo not given) [Perhexiline maleate] | 53.2% | –
43 | CN1CC(=O)N2[C@H](c3ccc4c(c3)OCO4)c3[nH]c4ccccc4c3C[C@@H]2C1=O | 70.8 ± 31% | –
44 | CC(C)NCC(O)COc1ccc(CCOCC2CC2)cc1 (stereo not given) [Betaxolol] | 96.1% | –
45 | CC(C)NCC(O)COc1ccc(CCOCC2CC2)cc1 (stereo not given) | 110% | –
46 | CC(C)NCC(O)COc1ccc(CCOCC2CC2)cc1 (stereo not given) [Betaxolol hydrochloride] | 72.5 ± 12% | –
47 | CC(=O)[C@@]1(O)CC[C@H]2[C@@H]3C[C@H](C)C4=CC(=O)C=C[C@]4(C)[C@@]3(F)[C@@H](O)C[C@@]21C [Fluorometholone] | 39.3% | –
48 | CC(=O)[C@@]1(O)CC[C@H]2[C@@H]3C[C@H](C)C4=CC(=O)C=C[C@]4(C)[C@@]3(F)[C@@H](O)C[C@@]21C | 39.6% | –
49 | CCc1nc(N)nc(N)c1-c1ccc(Cl)cc1 [Pyrimethamine] | 64.7% | –
50 | CCc1nc(N)nc(N)c1-c1ccc(Cl)cc1 | 82.1% | –
51 | Cc1c(C(=O)NN2CCCCC2)nn(-c2ccc(Cl)cc2Cl)c1-c1ccc(I)cc1 | 110% | –
52 | O=c1ccn2c(n1)O[C@H]1[C@H](O)[C@@H](CO)O[C@H]12 [O2,2'-Cyclouridine] | – | 88.7%
53 | C[C@H]1c2cccc(O)c2C(=O)C2=C(O)[C@]3(O)C(=O)C(C(N)=O)=C(O)[C@@H](N(C)C)[C@@H]3[C@@H](O)[C@@H]21 | 80.6% | –
54 | C[C@H]1c2cccc(O)c2C(=O)C2=C(O)[C@]3(O)C(=O)C(C(N)=O)=C(O)[C@@H](N(C)C)[C@@H]3[C@@H](O)[C@@H]21 [Doxycycline hydrochloride] | 94.5 ± 13% | –

Single records, as listed above:
C[C@@H]1O[C@@H](OC[C@H]2O[C@@H](Oc3c(-c4ccc(O)c(O)c4)oc4cc(O)cc(O)c4c3=O)[C@H](O)[C@@H](O)[C@@H]2O)[C@H](O)[C@H](O)[C@H]1O [Rutin] as listed: HMGB1-induced TNF-alpha production [1]: 76.9%
CCCC(=O)Nc1ccc(OCC(O)CNC(C)C)c(C(C)=O)c1 (stereo not given) [Acebutolol hydrochloride] as listed: HMGB1-induced TNF-alpha production (compound concentration: 3 uM): 58.6%
CC#CCC(C)[C@H](O)/C=C/[C@@H]1[C@H]2C/C(=C/CCCC(=O)O)C[C@H]2C[C@H]1O (stereo not given in full) [Iloprost] as listed: HMGB1-induced TNF-alpha production (compound concentration: 3 uM): 70.8%
CCCn1c(=O)[nH]c(=O)c2[nH]cnc21 [3-n-Propylxanthine] as listed: HMGB1-induced TNF-alpha production (compound concentration: 3 uM): 108%

The list continues:

Row | Structure (SMILES) | HMGB1-induced TNF-alpha production (compound concentration: 3 uM) | HMGB1-induced TNF-alpha production [1]
55 | C[C@H]1c2cccc(O)c2C(=O)C2=C(O)[C@]3(O)C(=O)C(C(N)=O)=C(O)[C@@H](N(C)C)[C@@H]3[C@@H](O)[C@@H]21 [Doxycycline] | 90.9% | –
56 | Clc1ccc(C(Cn2ccnc2)OCc2ccsc2Cl)c(Cl)c1 (stereo not given) | 63.6% | –
57 | Clc1ccc(C(Cn2ccnc2)OCc2ccsc2Cl)c(Cl)c1 (stereo not given) [Tioconazole] | 60.6 ± 4.3% | –
58 | O=C(O)CNC(=O)C(CS)Cc1ccccc1 (racemic) [DL-Thiorphan] | 109% | –
59 | CCCC1C(=O)N2C(N(C)C)=Nc3ccc(C)cc3N2C1=O (stereo not given) [Azapropazone] | 95.5% | –
60 | c1cnc(N2CCN(Cc3ccc4c(c3)OCO4)CC2)nc1 [Piribedil] | 115 ± 5.8% | –
61 | c1cnc(N2CCN(Cc3ccc4c(c3)OCO4)CC2)nc1 [Piribedil maleate] | 99.1% | –
62 | c1cnc(N2CCN(Cc3ccc4c(c3)OCO4)CC2)nc1 [Piribedil hydrochloride] | 96.7% | –
63 | c1cnc(N2CCN(Cc3ccc4c(c3)OCO4)CC2)nc1 | 77% | –
64 | C[C@](N)(Cc1ccc(O)c(O)c1)C(=O)O [Methyldopa (L,-)] | 81.7% | –
65 | C[C@](N)(Cc1ccc(O)c(O)c1)C(=O)O | 81.7% | –
66 | C[C@](N)(Cc1ccc(O)c(O)c1)C(=O)O [L-alpha-Methyl DOPA] | 113% | –
67 | C[C@](N)(Cc1ccc(O)c(O)c1)C(=O)O [Methyldopa] | 81.3% | –
68 | C/C(=C\CNc1ncnc2nc[nH]c12)CO [trans-Zeatin] | – | 62%
69 | COc1cc2c(C)cc(=O)oc2cc1Cl | – | 82.8%
70 | Fc1ccc(CN(C2=NCCN2)c2c(Cl)cccc2Cl)cc1 [IMID-4F hydrochloride] | 53.5% | –
71 | CCOC(=O)O[C@]1(C(=O)OCCl)CC[C@H]2[C@@H]3CCC4=CC(=O)C=C[C@]4(C)[C@H]3[C@@H](O)C[C@@]21C | 59% | –
72 | O=C(O)C(=O)O.[NH-][C@@H]1CCCC[C@H]1[NH-].[Pt+2] [Oxaliplatin] | 157% | –
73 | Cc1ccc(NC(=O)c2ccc(CN3CCN(C)CC3)cc2)cc1Nc1nccc(-c2cccnc2)n1 | 101% | –
74 | Cc1ccc(NC(=O)c2ccc(CN3CCN(C)CC3)cc2)cc1Nc1nccc(-c2cccnc2)n1 [Imatinib] | 99.6 ± 2.1% | –
75 | Oc1cc2c(c(Cl)c1O)CCNCC2c1ccccc1 (racemic) [(±)-6-Chloro-PB hydrobromide] | 78.4% | –
76 | Cc1nn(-c2ccccc2)c(C)c1C=NN1CCN(Cc2ccccc2)CC1 | 93.6% | –
77 | CCOC(=O)COc1ccc2c(=O)cc(-c3ccccc3)oc2c1 | 78% | –
78 | NS(=O)(=O)c1cc2c(cc1Cl)NC(C(Cl)Cl)NS2(=O)=O (stereo not given) [Trichloromethiazide] | 94.6% | –
79 | NS(=O)(=O)c1cc2c(cc1Cl)NC(C(Cl)Cl)NS2(=O)=O (stereo not given) [Trichlormethiazide] | 120% | –
80 | NS(=O)(=O)c1cc2c(cc1Cl)NC(C(Cl)Cl)NS2(=O)=O (stereo not given) | 88.4% | –
